Results: patent publication US8084644B2, “Iminopropene compound and use thereof” (Sumitomo Chemical Company, Limited, priority 2005, dated 2011)
Some of these results come from one statement about several compounds together. Some compounds share one range, which may span the group rather than tell each member.

How the values were obtained:
Type in all cases: in vivo
Spodoptela litura = test: Test Example 1: artificial diet test on tobacco cutworm larvae; conditions: 500 ppm, fourth-instar larvae, after 6 days
Adoxophyes orana = test: Test Example 2: artificial diet test on summer fruit tortrix larvae; conditions: 500 ppm, first-instar larvae, after 7 days
Aphis gossypii = test: Test Example 3: spray test on cotton aphids on cucumber; conditions: 500 ppm, first-instar larvae on cucumber, after 6 days
Nilaparvata lugens = test: Test Example 4: spray test on brown rice planthopper on rice; conditions: 500 ppm, first to second-instar larvae on rice, after 6 days
Musca domestica = test: Test Example 5: filter paper test on houseflies; conditions: 500 ppm, female adult houseflies, after 24 hours
Blattalla germanica = test: Test Example 6: filter paper test on German cockroach; conditions: 500 ppm, male adult German cockroach, after 6 days
Culex pipiens pallens = test: Test Example 7: water treatment test on common mosquito larvae; conditions: concentration of active ingredient 3.5 ppm in water; last-instar larvae; after one day
Plutella xylostella = test: Test Example 9: cabbage test on diamondback, second-instar; conditions: 500 ppm, 25° C., after five days
Bemisia argentifolii = test: Test Example 10: spray test on silver leaf white fly on cabbage; conditions: 200 ppm, after seven days

Structure (SMILES)	index number (mortality) (Spodoptela litura)	index number (mortality) (Adoxophyes orana)	index number (surviving rate based on untreated check) (Aphis gossypii)	index number (surviving rate based on untreated check) (Nilaparvata lugens)	index number (mortality) (Musca domestica)	index number (mortality) (Blattalla germanica)	index number (mortality) (Culex pipiens pallens)	index number (mortality) (Plutella xylostella)	index number (mortality) (Bemisia argentifolii)
FC(F)(F)c1ccc(SC(C=CSc2ccccc2)=Nc2ccccc2)cc1 [(25), 4-Trifluoromethylphenyl N-phenyl-3-(phenylthio)thioacrylimidate]	3 (mortality 80 to 99%)	3 (mortality 80 to 99%)	3 (surviving rate 1 to 10%)	3 (surviving rate 1 to 10%)	3 (mortality 70 to 99%)	4 (mortality 100%)	4 (mortality 91 to 100%)	3 (mortality 80 to 99%)	3 (mortality 90 to 99%)
C(=CC(=Nc1ccccc1)Oc1ccccc1)Sc1ccccc1 [(37), Phenyl N-phenyl-3-(phenylthio)acrylimidate]	3 (mortality 80 to 99%)	3 (mortality 80 to 99%)	3 (surviving rate 1 to 10%)	3 (surviving rate 1 to 10%)	3 (mortality 70 to 99%)	4 (mortality 100%)	4 (mortality 91 to 100%)	3 (mortality 80 to 99%)	3 (mortality 90 to 99%)
C(=CC(=Nc1ccccc1)Oc1ccccc1)Oc1ccccc1 [(38), Phenyl 3-(phenoxy)-N-phenylacrylimidate]	3 (mortality 80 to 99%)	3 (mortality 80 to 99%)	3 (surviving rate 1 to 10%)	3 (surviving rate 1 to 10%)	3 (mortality 70 to 99%)	4 (mortality 100%)	4 (mortality 91 to 100%)	3 (mortality 80 to 99%)	3 (mortality 90 to 99%)
Cc1ccc(N=C(C=CSc2ccccc2)Oc2ccccc2)cc1 [(54), Phenyl N-(4-methylphenyl)-3-(phenylthio)acrylimidate]	3 (mortality 80 to 99%)	3 (mortality 80 to 99%)	3 (surviving rate 1 to 10%)	3 (surviving rate 1 to 10%)	3 (mortality 70 to 99%)	4 (mortality 100%)	4 (mortality 91 to 100%)	3 (mortality 80 to 99%)	3 (mortality 90 to 99%)
Cc1cccc(OC(C=CSc2ccccc2)=Nc2ccc(C(C)C)cc2)c1 [(87), 3-Methylphenyl N-[4-(1-methylethyl)phenyl]-3-(phenylthio)acrylimidate]	3 (mortality 80 to 99%)	3 (mortality 80 to 99%)	3 (surviving rate 1 to 10%)	3 (surviving rate 1 to 10%)	3 (mortality 70 to 99%)	4 (mortality 100%)	4 (mortality 91 to 100%)	3 (mortality 80 to 99%)	3 (mortality 90 to 99%)
Cc1ccc(N=C(C=CSc2ccccc2)SCC(C)C)cc1 [(321), 2-Methylpropyl N-(4-methylphenyl)-3-(phenylthio)thioacrylimidate]	3 (mortality 80 to 99%)	–	3 (surviving rate 1 to 10%)	3 (surviving rate 1 to 10%)	3 (mortality 70 to 99%)	4 (mortality 100%)	4 (mortality 91 to 100%)	3 (mortality 80 to 99%)	3 (mortality 90 to 99%)
